Assay results as given in publication PMC4802056.

Target: taxol-stabilized microtubules
Assay: co-sedimentation; microtubule spin-down: 500 ng of dialyzed MBP-CEP215 (1–300) in PBS incubated with taxol-stabilized microtubules or tubulin, pelleted through a 1 M sucrose cushion in BRB80, Coomassie-stained gel; both purified

B1: MBP-CEP215 (1–300) (domain or fragment, UniProt Q96SN8 1-300)
chain: MMDLVLEEDVTVPGTLSGCSGLVPSVPDDLDGINPNAGLGNGLLPNVSEETVSPTRARNMKDFENQITELKKENFNLKLRIYFLEERMQQEFHGPTEHIYKTNIELKVEVESLKRELQEREQLLIKASKAVESLAEAGGSEIQRVKEDARKKVQQVEDLLTKRILLLEKDVTAAQAELEKAFAGTETEKALRLRLESKLSEMKKMHEGDLAMALVLDEKDRLIEELKLSLKSKEALIQCLKEEKSQMACPDENVSSGELRGLCAAPREEKERETEAAQMEHQKERNSFEERIQALEEDLR
Question: With B1 as the binder, how does the binding read?
Answer: binds

These are yes or no findings as the source states them, for the method shown. Binding calls can cover weak binding; strength is not graded here. Where a sequence is shown, tags or fusion partners need not be part of it.
